# Taken from: PubChem BioAssay AID686937 (Drosophila RNAi Screening Center, 2013)
# Screen: 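Genes whose loss weakens secretory pathway function in fly cells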 (primary screen)
# Cells: Drosophila S2 cells expressing secreted horseradish peroxidase
# Reagent: long dsRNA against Drosophila genes
# Time to read-out: about 5.5 days (5 days dsRNA, then 12 h reporter induction)
# Treatment: reporter expression induced after 5 days of dsRNA, read 12 h later; inducer not stated
# Measurement: 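After 5 days of dsRNA and 12 h of reporter induction, medium peroxidase read by chemiluminescence and scored as per-plate z-score; higher values mean more reporter released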
# Reading the numbers: z-score: higher = more reporter secreted into medium
# The screen tested about 23,000 reagents; this is an unselected part of those that have a named target and a result. 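Reduced-secretion tags in replicate 1 do not always agree with the z-scores; no criterion for assigning the tags was given.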 A plus sign joins genes that one reagent is predicted to hit. Further read-outs or replicates are left out here. Not given: the amount of reagent.
gene knocked down,dsRNA,"z-score, replicate 1","z-score, replicate 2"
CG11585,DRSC19410,0.28,0.19
CG13282,DRSC02254,0.4,0.04
Brr2,DRSC10559,-4.09,-3.09
Fer1,DRSC12507,0.53,0.8
Fer1,DRSC12555,-0.1,-0.28
Poxm,DRSC16793,0.54,0.1
Poxm,DRSC22839,0.21,-0.45
lqfR,DRSC14703,-0.4,-0.35
lqfR,DRSC14704,0.28,0.09
dyw,DRSC18228,0.23,0.4
CG18598,DRSC15356,0.26,0.48
Cyp4ac2,DRSC03303,0.11,0.28
antr,DRSC22392,0.53,0.59
Arpc1,DRSC03438,0.03,0.17
CG13659,DRSC14660,0.24,0.22
prg,DRSC03324,0.91,0.67
CCT8,DRSC07130,-0.09,-0.46
CG17707,DRSC20650,0.24,0.13
RfC4,DRSC08691,0.19,0.4
prc,DRSC11385,0.39,0.29
Snmp2,DRSC10228,0.5,0.18
Snmp2,DRSC10843,0.38,0.12
unc-5,DRSC05545,0.16,-0.06
unc-5,DRSC07711,0.27,0.38
unc-5,DRSC07712,0.3,0.41
CG33287,DRSC22929,0.02,-0.35
CG43336,DRSC15765,-0.18,-0.03
Ho,DRSC14939,0.33,0.15
CG34282,DRSC16298,0.39,0.51
dgo,DRSC06134,0.09,0.34
TORIP,DRSC10104,0.19,0.16
CG14785,DRSC18604,0.35,0.18
Ltn1,DRSC11056,0.23,0.27
Ltn1,DRSC11058,0.21,0.2
Mtr4,DRSC03560,-2.59,-1.21
Pkd2,DRSC02962,-0.2,0.36
CG9316,DRSC03195,0.14,0.28

Part of the list above, reformatted:
gene knocked down | dsRNA | z-score, replicate 1 | z-score, replicate 2
CCT8 | DRSC07130 | -0.09 | -0.46
CG17707 | DRSC20650 | 0.24 | 0.13
RfC4 | DRSC08691 | 0.19 | 0.4
prc | DRSC11385 | 0.39 | 0.29
Snmp2 | DRSC10228 | 0.5 | 0.18
Snmp2 | DRSC10843 | 0.38 | 0.12
unc-5 | DRSC05545 | 0.16 | -0.06
unc-5 | DRSC07711 | 0.27 | 0.38
unc-5 | DRSC07712 | 0.3 | 0.41
CG33287 | DRSC22929 | 0.02 | -0.35
CG43336 | DRSC15765 | -0.18 | -0.03
Ho | DRSC14939 | 0.33 | 0.15
CG34282 | DRSC16298 | 0.39 | 0.51

Next reagents:
gene knocked down,dsRNA,"z-score, replicate 1","z-score, replicate 2"
SmydA-8,DRSC18797,0.57,0.34
SmydA-8,DRSC22064,0.3,-0.03
SmydA-8,DRSC22263,-0.86,-0.36
l(2)05287,DRSC02151,0.09,0.14
l(2)05287,DRSC02152,-0.05,-0.33
Tep5Psi,DRSC02183,0.19,0.36
Tep5Psi,DRSC02184,0.48,0.25
msps,DRSC17004,0.36,0.37
OS9 + Hf,DRSC03392,0.38,0.18
Son,DRSC16400,0.38,0.46
CG2291,DRSC06836,0.25,0.39
CG3984,DRSC15530,0.17,0.55
CG33341,DRSC22887,0.1,0.02
aqz + CG9837,DRSC12709,0.31,0.65
knk,DRSC15993,0.27,0.31
PK2-R1,DRSC16447,0.29,0.48
Mal-B1,DRSC02416,0.56,0.47
SmydA-5,DRSC04867,0.16,0.26
Lamp1,DRSC03727,-0.32,0.04
Alg14,DRSC19983,0.47,0.48
levy,DRSC04289,-0.13,0.17
natalisin,DRSC14966,-1.59,-2.52
natalisin,DRSC14967,0.67,0.8
wg,DRSC03636,0.33,0.46
Takl1,DRSC13443,0.02,0.57
CG14598,DRSC12541,0.21,0.4
CG11353,DRSC08182,0.37,0.43
CG15876,DRSC08484,0.28,0.36
lncRNA:CR40629,DRSC20959,0.12,0.22
GLaz,DRSC07431,-0.19,-0.11
ppk13,DRSC02382,0.36,0.42
Cyp305a1,DRSC11126,0.38,0.23
CG32712,DRSC17820,0.52,0.19
ScsbetaA,DRSC14446,0.22,0.31
hts,DRSC05791,0.22,0.34
CG33981 + fab1,DRSC07412,-0.07,-0.09
Acox57D-p,DRSC04560,0.1,0.14
tos,DRSC03624,0.33,0.28
CG13721,DRSC08330,0.28,0.48
wor,DRSC03637,-0.26,0.01
CG34129,DRSC15960,-0.01,0.11
Adss,DRSC14162,0.25,0.4
ValRS-m,DRSC10535,0.13,0.22
Tsp42Ei,DRSC06189,0.31,0.35
CG33725,DRSC09183,0.12,-0.15
